In article PMC11898958, “Application of Biomimetic Chromatography and QSRR Approach for Characterizing Organophosphate Pesticides” (International Journal of Molecular Sciences, 2025):
Some compounds share one wording; it may come from a single statement.

Details: heat map and hierarchical analysis of auto-scaled CHIC18, CHIIAM and HSA data; classes low, medium, high

Molecule	bioaccumulation potency (group from hierarchical analysis)
CCOP(=S)(OCC)SCn1nnc2ccccc2c1=O [Azinphos-ethyl]	high bioaccumulation potency
COP(=S)(OC)SCn1nnc2ccccc2c1=O [Azinphos-methyl]	medium bioaccumulation potency
CCOP(=O)(OCC)OC(=CCl)c1ccc(Cl)cc1Cl [Chlorfenvinphos]	medium bioaccumulation potency
CCOP(=S)(OCC)Oc1cc(C)nc(C(C)C)n1 [Diazinon]	medium bioaccumulation potency
COP(=O)(OC)OC=C(Cl)Cl [Dichlorvos]	low bioaccumulation potency
CCOP(=S)(OCC)SCCSCC [Disulfoton]	high bioaccumulation potency
COP(=S)(OC)Oc1ccc([N+](=O)[O-])c(C)c1 [Fenitrothion]	high bioaccumulation potency
COP(=S)(OC)Oc1ccc(SC)c(C)c1 [Fenthion]	high bioaccumulation potency
CCOC(=O)N(C)C(=O)CSP(=S)(OCC)OCC [Mecarbam]	medium bioaccumulation potency
COP(=O)(OC)OC(Br)C(Cl)(Cl)Br (stereo not shown) [Naled]	low bioaccumulation potency
CCOP(=O)(OCC)Oc1ccc([N+](=O)[O-])cc1 [Paraoxon-ethyl]	low bioaccumulation potency
COP(=S)(OC)Oc1ccc([N+](=O)[O-])cc1 [Parathion-methyl]	medium bioaccumulation potency
CCOP(=S)(OCC)SCSCC [Phorate]	high bioaccumulation potency
COP(=S)(OC)SCN1C(=O)c2ccccc2C1=O [Phosmet]	medium bioaccumulation potency
CCOP(=S)(OCC)Oc1cnc2ccccc2n1 [Quinalphos]	high bioaccumulation potency
Chlorpyrifos-oxon	low bioaccumulation potency
